PMC11695203, “A new peptide inhibitor of C1QBP exhibits potent anti‐tumour activity against triple negative breast cancer by impairing mitochondrial function and suppressing homologous recombination repair” (Clinical and Translational Medicine, 2025)
No constants are given. Whether binding was seen depends on the method and setting. In cells and extracts the contact can be indirect. Some entries that bind do so weakly or less than the wild type.

Amino acid sequences for entries named in this document (tags omitted). Residues count along the entry.
UniProt Q07021, residues 74-282: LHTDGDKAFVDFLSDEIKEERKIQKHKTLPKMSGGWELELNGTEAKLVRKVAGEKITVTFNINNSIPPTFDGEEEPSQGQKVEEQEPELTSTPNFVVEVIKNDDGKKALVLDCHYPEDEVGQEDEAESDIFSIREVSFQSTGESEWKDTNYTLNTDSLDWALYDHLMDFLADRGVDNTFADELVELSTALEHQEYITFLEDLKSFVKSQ

Columns and labels:
[1] = target: T1, biotin-labelled PDBAG1 (human (peptide identified in patients' adipose tissue)); assay: pull-down; biotin-PDBAG1 pull-down from cytoplasmic and nuclear protein extracts, followed by immunoblotting; only the target purified
T1 sequence (peptide, biotin label (position not stated)): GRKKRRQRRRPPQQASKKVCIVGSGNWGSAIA

[2] = target: T1, biotin-labelled PDBAG1 (human (peptide identified in patients' adipose tissue)); assay: pull-down; biotin-labelled PDBAG1 on streptavidin magnetic beads, incubated overnight at 4°C with cell lysate in IP lysis buffer; captured proteins detected by western blot; only the target purified
[3] = target: T1, biotin-labelled PDBAG1 (human (peptide identified in patients' adipose tissue)); assay: pull-down; lysates of MDA-MB-231 cells transfected with C-terminally HA-tagged C1QBP truncations incubated with PDBAG1; only the target purified
HA-tagged C1QBP = HA-tagged C1QBP (UniProt Q07021); assay: co-IP; HA-tagged C1QBP used as bait; biotin-labelled PDBAG1 added to the protein lysate; only the binder purified

Molecule: C1QBP (endogenous) (from UniProt Q07021 74-282)
- binding [1]: binds
- binding [2]: binds

Molecule: C1QBP truncation 74–282AA, HA at the C-terminus (from UniProt Q07021 74-282) (domain or fragment)
- binding [3]: binds

Molecule: GRKKRRQRRRPPQQASKKVCIVGSGNWGSAIA (biotin label (position not given)) [biotin-labelled PDBAG1]
- binding (HA-tagged C1QBP): binds

B1: DHX57 (endogenous) (protein, UniProt Q6P158 1-1386)
chain: MSSSVRRKGKPGKGGGKGSSRGGRGGRSHASKSHGSGGGGGGGGGGGGGNRKASSRIWDDGDDFCIFSESRRPSRPSNSNISKGESRPKWKPKAKVPLQTLHMTSENQEKVKALLRDLQEQDADAGSERGLSGEEEDDEPDCCNDERYWPAGQEPSLVPDLDPLEYAGLASVEPYVPEFTVSPFAVQKLSRYGFNTERCQAVLRMCDGDVGASLEHLLTQCFSETFGERMKISEAVNQISLDECMEQRQEEAFALKSICGEKFIERIQNRVWTIGLELEYLTSRFRKSKPKESTKNVQENSLEICKFYLKGNCKFGSKCRFKHEVPPNQIVGRIERSVDDSHLNAIEDASFLYELEIRFSKDHKYPYQAPLVAFYSTNENLPLACRLHISEFLYDKALTFAETSEPVVYSLITLLEEESEIVKLLTNTHHKYSDPPVNFLPVPSRTRINNPACHKTVIPNNSFVSNQIPEVEKASESEESDEDDGPAPVIVENESYVNLKKKISKRYDWQAKSVHAENGKICKQFRMKQASRQFQSILQERQSLPAWEERETILNLLRKHQVVVISGMTGCGKTTQIPQFILDDSLNGPPEKVANIICTQPRRISAISVAERVAKERAERVGLTVGYQIRLESVKSSATRLLYCTTGVLLRRLEGDTALQGVSHIIVDEVHERTEESDFLLLVLKDIVSQRPGLQVILMSATLNAELFSDYFNSCPVITIPGRTFPVDQFFLEDAIAVTRYVLQDGSPYMRSMKQISKEKLKARRNRTAFEEVEEDLRLSLHLQDQDSVKDAVPDQQLDFKQLLARYKGVSKSVIKTMSIMDFEKVNLELIEALLEWIVDGKHSYPPGAILVFLPGLAEIKMLYEQLQSNSLFNNRRSNRCVIHPLHSSLSSEEQQAVFVKPPAGVTKIIISTNIAETSITIDDVVYVIDSGKMKEKRYDASKGMESLEDTFVSQANALQRKGRAGRVASGVCFHLFTSHHYNHQLLKQQLPEIQRVPLEQLCLRIKILEMFSAHNLQSVFSRLIEPPHTDSLRASKIRLRDLGALTPDERLTPLGYHLASLPVDVRIGKLMLFGSIFRCLDPALTIAASLAFKSPFVSPWDKKEEANQKKLEFAFANSDYLALLQAYKGWQLSTKEGVRASYNYCRQNFLSGRVLQEMASLKRQFTELLSDIGFAREGLRAREIEKRAQGGDGVLDATGEEANSNAENPKLISAMLCAALYPNVVQVKSPEGKFQKTSTGAVRMQPKSAELKFVTKNDGYVHIHPSSVNYQVRHFDSPYLLYHEKIKTSRVFIRDCSMVSVYPLVLFGGGQVNVQLQRGEFVVSLDDGWIRFVAASHQVAELVKELRCELDQLLQDKIKNPSIDLCTCPRGSRIISTIVKLVTTQ
- binding [2]: binds
